Values from PubChem BioAssay AID1508588 (Peter MacCallum Cancer Centre, 2020).
In all, the deposit lists about 18,000 reagents; shown is a part drawn at random. 790 of all reagents (4.4%) were called active. 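Calls rest on a combination of fold-change classes in drug and vehicle arms, not all shown here.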 A number with no mark means an inactive call. The numbers tell different reagents against one gene apart.

Test: 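Knock-downs boosting vemurafenib effects on melanoma cell growth or lactate release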 (primary screen)
System: human WM266.4 melanoma cells (BRAF V600 mutant)
Knock-down reagent: siRNA pool against human genes, 40 nM
Time to read-out: 96 h from transfection to read-out
Conditions: vemurafenib 300 nM (about IC25), added 48 h after transfection, for 48 h; comparison arm got DMSO vehicle only
Measurement: 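Ratios to non-targeting siRNA for cell gain, counted as DAPI nuclei after minus before drug and averaged over two replicates, and for absorbance-read medium lactate per cell; both binned into fold-change classes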
Reading the numbers: cell gain with vemurafenib: higher = more cell gain than with non-targeting siRNA; lactate per cell with vemurafenib: higher = more lactate made per cell
Rule for the call: 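Enhancement is called by pairing each knock-down's vehicle-arm and drug-arm fold-change classes for viability or glycolysis; which class combinations qualify is not given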
Calls: active = enhances vemurafenib effect; inactive = no enhancement seen

target	reagent no.	cell gain with vemurafenib	lactate per cell with vemurafenib
COL4A3	1	1.08	0.69
CDC7	1	0.71	0.62
NXPH2	1	0	3.73
ARMCX3	1	0.5	1.07
H4C8	1	0.62	2.17
UTP14A	1	0.81	1.49
SCAMP5	1	0.78	0.72
IFI44L	1	0.46	1.13
PUSL1	1	0.58	1.13
TTC1	1	0.64	1.18
LGALS12	1	0.89	0.62
RPUSD1	1	0.95	0.6
POLR2J3	1	0.3	1.34
VWA7	1	0.23	2.42
SPRY4	1	0.52	1.59
TRPT1	1	0.65 (active)	0.35
DAPK2	1	0.48	1.17
DEFA3	1	1	0.45
SOX6	1	0.42	2.02
CALD1	1	1.11	0.48
PLCL1	1	0.65	1.08
CDC73	1	0.69	1.06
RPL18	1	-0.08	3.04
CMTM1	1	0.39	0.9
BORA	1	0.37	1.4
ARL16	1	0.85 (active)	0.68
P2RY11	1	1.02	1.36
TBKBP1	1	0.63	1.9
TMEM231	1	0.7	0.77
PRPF31	1	0.02	1.63
TAMALIN	1	0.84	0.5
PRG2	1	0.77	1.09
SRF	1	0.56	0.49
TGFB3	1	0.56	0.9
SGF29	1	0.35	1.8
SLC9C2	1	0.63	0.78
HLA-DMA	1	1.32	0.75
RFPL3	1	0.33	0.84
OR12D2	1	0.82	0.24
MAPK8	1	0.8	1.29
ARHGAP45	1	0.79	0.57
CFAP36	1	0.39	1.69
TEX15	1	0.6 (active)	0.38
TMEM115	1	0.64	0.86
PRMT6	1	0.82	0.58
CLASP1	1	0.76	0.46
SPTLC1	1	0.06	0.97
GNG10	1	0.67	1.42
SRGAP3	1	0.85	1.24
PLN	1	0.48	0.62
UEVLD	1	0.07	0.76
PCDHGA11	1	0.65	0.76
PCM1	1	0.23	0.72
KLHL21	1	0.52	1.18
RHEBL1	1	0.51	1.43
DEFB135	1	0.64	0.96
PDLIM1	1	0.71	1.2
CEP112	1	0.99	1.06
UQCC4	1	0.91	0.66
MIA2	1	0.2	1.2
MIA2	2	1.05	0.73
IL18	1	0.32	0.44
SLC6A17	1	1.04	0.67
KRTAP1-1	1	0.44	1.19
VPS33B	1	0.76 (active)	0.44
MRPS11	1	0.42	1.86
CTSS	1	0.74	0.86
CABP7	1	0.9	0.69
PRR25	1	0.05	1.71
SLAMF7	1	0.76	0.5
SASH3	1	0.17	0.87
SRSF5	1	0.77	1.32
IL2RG	1	0.79	0.5
RBMY1B	1	1.12	0.62
LRRC32	1	0.1	1.65
SARS2	1	0.45	1.56
RPL22	1	0.3	1
AUTS2	1	0.43	1.25
GCSAML	1	0.82	0.7
PGM3	1	0.78	0.64
TCTN1	1	0.95	0.52
CD300LD-AS1	1	0.87	0.27
IL34	1	0.93	0.62
NRG1	1	0.38	0.82

In a second layout: 5 of the entries above.
{"target":"GCSAML","reagent no.":1,"cell gain with vemurafenib":0.82,"lactate per cell with vemurafenib":0.7}
{"target":"PGM3","reagent no.":1,"cell gain with vemurafenib":0.78,"lactate per cell with vemurafenib":0.64}
{"target":"TCTN1","reagent no.":1,"cell gain with vemurafenib":0.95,"lactate per cell with vemurafenib":0.52}
{"target":"CD300LD-AS1","reagent no.":1,"cell gain with vemurafenib":0.87,"lactate per cell with vemurafenib":0.27}
{"target":"IL34","reagent no.":1,"cell gain with vemurafenib":0.93,"lactate per cell with vemurafenib":0.62}
